# Measured values reported in the supplement of paper PMC10849652.
# Chains of the proteins cited; added tags and fusions are not shown. Lines headed by an entry give the natural chain unless they say otherwise; changes in a name come on top.
# UniProt Q9NVH2, whole entry, looked up: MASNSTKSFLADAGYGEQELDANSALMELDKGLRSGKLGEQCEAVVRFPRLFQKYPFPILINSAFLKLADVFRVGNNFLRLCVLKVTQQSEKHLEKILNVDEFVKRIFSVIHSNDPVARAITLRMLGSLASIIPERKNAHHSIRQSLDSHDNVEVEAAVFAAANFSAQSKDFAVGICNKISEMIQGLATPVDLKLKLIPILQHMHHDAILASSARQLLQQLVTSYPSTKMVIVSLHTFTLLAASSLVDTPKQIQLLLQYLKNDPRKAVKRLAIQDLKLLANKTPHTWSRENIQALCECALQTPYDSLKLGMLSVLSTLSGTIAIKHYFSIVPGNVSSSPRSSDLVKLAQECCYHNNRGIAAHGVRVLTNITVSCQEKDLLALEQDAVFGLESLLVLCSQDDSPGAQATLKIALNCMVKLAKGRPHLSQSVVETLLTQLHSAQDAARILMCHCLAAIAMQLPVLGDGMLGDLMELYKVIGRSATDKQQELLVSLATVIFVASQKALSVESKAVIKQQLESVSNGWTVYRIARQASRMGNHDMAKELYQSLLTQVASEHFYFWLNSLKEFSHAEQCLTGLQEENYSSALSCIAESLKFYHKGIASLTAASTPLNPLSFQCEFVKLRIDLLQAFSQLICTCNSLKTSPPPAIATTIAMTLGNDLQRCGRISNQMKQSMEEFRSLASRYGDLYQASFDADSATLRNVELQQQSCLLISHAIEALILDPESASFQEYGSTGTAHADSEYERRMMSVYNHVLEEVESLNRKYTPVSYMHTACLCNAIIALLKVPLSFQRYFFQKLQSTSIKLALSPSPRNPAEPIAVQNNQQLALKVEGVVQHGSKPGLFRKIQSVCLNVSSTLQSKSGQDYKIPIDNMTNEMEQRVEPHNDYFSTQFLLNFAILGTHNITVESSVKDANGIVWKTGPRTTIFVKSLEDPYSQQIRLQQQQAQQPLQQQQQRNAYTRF
# UniProt P58166: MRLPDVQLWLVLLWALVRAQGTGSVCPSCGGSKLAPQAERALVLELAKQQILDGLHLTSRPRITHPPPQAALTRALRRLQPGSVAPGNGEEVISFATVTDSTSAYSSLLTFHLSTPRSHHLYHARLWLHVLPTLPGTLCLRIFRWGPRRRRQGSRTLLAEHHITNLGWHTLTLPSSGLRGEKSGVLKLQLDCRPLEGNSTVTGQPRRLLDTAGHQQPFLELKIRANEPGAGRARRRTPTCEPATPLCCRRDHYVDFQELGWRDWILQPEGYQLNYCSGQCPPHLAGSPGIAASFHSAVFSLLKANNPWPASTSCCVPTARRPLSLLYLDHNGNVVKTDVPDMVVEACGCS
# UniProt P24593, whole entry, looked up: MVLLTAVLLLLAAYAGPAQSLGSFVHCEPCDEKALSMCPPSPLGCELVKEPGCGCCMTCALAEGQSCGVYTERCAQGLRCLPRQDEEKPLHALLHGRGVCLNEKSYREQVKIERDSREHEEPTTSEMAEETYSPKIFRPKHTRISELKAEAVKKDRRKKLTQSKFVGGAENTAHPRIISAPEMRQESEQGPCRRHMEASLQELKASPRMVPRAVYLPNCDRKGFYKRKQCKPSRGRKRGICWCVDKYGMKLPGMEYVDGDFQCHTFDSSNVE
# UniProt O14920: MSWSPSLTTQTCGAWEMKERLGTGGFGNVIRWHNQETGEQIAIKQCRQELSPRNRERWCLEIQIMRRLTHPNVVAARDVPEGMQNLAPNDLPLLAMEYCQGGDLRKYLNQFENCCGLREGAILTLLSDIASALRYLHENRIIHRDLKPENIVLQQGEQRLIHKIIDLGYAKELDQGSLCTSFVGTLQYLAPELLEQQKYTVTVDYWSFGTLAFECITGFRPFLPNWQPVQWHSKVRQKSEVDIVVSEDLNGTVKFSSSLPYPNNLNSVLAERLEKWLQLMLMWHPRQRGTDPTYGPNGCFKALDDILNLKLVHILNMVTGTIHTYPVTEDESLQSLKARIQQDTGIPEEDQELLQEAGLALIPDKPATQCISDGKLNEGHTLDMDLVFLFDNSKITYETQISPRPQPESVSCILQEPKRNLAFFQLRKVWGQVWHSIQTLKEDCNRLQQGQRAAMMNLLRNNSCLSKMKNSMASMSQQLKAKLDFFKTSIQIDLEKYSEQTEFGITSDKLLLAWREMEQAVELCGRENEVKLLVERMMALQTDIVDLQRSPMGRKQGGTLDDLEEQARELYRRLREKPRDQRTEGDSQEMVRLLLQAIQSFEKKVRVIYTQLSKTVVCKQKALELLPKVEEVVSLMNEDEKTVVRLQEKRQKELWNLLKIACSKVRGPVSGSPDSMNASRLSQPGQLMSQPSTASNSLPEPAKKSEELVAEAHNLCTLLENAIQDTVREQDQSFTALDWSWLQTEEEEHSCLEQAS
# UniProt O14732: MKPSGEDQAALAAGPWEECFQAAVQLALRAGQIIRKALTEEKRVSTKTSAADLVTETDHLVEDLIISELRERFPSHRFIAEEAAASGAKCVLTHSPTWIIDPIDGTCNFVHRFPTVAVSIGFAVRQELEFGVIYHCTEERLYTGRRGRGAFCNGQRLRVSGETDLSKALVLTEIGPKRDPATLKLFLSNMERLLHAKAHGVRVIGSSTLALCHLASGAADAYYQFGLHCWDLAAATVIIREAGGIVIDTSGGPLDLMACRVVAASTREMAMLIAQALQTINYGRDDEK
# UniProt Q14643, whole entry, looked up: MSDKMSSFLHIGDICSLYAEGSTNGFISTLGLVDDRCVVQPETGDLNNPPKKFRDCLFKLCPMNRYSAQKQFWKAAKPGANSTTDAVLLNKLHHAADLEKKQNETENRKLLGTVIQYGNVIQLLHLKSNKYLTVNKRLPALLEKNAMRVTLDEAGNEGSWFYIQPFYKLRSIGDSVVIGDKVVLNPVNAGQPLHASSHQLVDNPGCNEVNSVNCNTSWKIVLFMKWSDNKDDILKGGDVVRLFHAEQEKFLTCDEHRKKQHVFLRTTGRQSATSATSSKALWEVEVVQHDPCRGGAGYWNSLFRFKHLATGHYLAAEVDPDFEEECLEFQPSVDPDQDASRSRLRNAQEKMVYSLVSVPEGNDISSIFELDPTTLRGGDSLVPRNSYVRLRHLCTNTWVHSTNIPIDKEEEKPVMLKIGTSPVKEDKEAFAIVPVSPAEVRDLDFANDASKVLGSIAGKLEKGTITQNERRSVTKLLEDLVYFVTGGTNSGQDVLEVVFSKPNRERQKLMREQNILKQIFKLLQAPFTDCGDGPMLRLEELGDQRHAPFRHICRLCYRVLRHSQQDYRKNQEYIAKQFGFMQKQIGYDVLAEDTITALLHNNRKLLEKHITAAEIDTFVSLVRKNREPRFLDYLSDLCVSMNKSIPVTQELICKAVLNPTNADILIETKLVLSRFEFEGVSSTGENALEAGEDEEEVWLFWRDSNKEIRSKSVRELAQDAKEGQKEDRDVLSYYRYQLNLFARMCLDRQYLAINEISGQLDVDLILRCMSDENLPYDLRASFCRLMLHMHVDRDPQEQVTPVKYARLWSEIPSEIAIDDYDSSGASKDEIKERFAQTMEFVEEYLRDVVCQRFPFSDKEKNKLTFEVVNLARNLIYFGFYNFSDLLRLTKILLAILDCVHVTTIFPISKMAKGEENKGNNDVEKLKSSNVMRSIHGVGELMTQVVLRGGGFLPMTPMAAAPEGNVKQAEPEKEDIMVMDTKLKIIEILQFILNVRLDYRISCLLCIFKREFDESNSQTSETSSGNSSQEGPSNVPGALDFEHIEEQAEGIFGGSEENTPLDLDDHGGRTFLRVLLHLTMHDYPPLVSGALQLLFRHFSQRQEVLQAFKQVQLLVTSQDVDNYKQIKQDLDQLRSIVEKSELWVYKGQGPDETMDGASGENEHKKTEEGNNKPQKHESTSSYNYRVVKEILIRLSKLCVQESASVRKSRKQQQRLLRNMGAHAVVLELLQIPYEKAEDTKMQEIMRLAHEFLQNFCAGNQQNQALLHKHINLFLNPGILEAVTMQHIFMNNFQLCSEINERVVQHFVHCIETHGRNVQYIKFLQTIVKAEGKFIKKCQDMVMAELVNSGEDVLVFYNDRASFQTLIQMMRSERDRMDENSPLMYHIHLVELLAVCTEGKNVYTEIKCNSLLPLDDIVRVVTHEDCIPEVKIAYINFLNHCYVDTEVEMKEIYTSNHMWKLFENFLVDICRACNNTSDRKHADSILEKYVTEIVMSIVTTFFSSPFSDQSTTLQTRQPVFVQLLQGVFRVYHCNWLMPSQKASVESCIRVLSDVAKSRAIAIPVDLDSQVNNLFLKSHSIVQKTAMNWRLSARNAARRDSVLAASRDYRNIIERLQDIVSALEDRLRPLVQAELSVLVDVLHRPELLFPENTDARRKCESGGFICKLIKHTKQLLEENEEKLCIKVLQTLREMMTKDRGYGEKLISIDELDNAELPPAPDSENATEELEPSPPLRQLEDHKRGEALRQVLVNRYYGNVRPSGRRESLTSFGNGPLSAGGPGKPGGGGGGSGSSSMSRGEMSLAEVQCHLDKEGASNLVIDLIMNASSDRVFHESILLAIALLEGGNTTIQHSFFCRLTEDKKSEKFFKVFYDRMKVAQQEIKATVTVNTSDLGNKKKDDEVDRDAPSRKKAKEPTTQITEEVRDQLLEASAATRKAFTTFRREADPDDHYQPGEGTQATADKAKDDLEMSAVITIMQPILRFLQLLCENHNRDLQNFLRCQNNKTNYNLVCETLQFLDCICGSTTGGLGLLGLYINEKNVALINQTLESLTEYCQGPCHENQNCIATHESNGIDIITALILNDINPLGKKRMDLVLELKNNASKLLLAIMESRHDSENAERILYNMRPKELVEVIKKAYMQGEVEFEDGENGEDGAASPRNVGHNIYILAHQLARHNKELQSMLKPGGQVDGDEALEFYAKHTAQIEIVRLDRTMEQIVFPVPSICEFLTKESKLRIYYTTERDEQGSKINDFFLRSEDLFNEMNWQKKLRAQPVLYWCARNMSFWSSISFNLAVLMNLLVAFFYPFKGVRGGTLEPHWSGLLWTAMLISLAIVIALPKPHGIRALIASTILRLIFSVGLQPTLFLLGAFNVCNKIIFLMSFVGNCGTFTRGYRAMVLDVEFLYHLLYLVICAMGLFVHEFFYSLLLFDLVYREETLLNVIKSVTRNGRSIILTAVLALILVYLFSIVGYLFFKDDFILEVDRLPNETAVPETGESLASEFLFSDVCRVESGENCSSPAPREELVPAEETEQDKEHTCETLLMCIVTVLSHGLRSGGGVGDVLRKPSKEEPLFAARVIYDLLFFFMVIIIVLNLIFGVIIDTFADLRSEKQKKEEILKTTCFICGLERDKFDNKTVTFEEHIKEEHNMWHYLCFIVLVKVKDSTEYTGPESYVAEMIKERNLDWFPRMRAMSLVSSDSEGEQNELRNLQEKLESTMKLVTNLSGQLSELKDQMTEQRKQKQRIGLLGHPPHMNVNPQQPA
# UniProt P38570: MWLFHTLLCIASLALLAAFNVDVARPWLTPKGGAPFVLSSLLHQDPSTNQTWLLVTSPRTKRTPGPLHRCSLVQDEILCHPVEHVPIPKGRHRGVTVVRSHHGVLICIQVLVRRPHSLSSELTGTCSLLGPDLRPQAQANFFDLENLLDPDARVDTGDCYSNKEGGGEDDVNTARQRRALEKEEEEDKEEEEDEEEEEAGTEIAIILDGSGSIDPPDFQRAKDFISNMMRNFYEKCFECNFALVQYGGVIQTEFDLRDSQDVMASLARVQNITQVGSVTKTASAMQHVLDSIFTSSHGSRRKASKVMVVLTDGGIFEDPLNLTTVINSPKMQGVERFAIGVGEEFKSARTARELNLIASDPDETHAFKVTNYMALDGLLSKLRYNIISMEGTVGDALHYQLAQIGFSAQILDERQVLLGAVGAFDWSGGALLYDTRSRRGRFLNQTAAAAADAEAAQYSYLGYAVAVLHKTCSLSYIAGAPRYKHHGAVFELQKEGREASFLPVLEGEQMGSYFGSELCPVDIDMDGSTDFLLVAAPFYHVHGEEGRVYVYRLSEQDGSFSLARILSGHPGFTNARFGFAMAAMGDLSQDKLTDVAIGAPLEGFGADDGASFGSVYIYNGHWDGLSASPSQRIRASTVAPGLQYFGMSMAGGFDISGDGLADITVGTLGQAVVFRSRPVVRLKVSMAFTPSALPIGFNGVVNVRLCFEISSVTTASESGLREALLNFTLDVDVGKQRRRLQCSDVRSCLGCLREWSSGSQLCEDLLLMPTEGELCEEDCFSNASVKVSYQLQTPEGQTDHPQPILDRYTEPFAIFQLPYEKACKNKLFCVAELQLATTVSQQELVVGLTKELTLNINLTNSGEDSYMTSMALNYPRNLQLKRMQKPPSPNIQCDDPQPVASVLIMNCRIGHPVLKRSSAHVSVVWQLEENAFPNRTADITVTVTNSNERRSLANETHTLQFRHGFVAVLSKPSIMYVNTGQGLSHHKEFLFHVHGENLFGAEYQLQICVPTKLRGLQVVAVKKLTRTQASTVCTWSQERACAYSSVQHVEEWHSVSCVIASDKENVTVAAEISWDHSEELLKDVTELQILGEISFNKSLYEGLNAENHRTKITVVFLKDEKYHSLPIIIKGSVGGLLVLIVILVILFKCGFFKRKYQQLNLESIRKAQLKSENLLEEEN
# This is one part of the list. Residues, ends and D or L forms follow the SMILES beside them. *: point of attachment. Cbz = O=C(OCc1ccccc1)*
# Tests used:
# Experiment in all cases: log2 fold change, soluble protein after heating vs DMSO (PISA); higher = thermal stabilisation; K562 cells, 10 uM, 30 min; active = over 0.2 and 3.5 SD of the protein, either way, in both replicates (recomputed)
# [1] = compound: C#Cc1cccc(Nc2ncnc3cc(OCCOC)c(OCCOC)cc23)c1 [erlotinib]
# Outline: (§1)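 K562 cells at 2×10^6 cells/mL were exposed to 10 μM compound for 30 min, then aliquots were heated for 3 min across 48°C-58°C, pooled, and extracted in PBS containing 0.5% NP-40 at 4°C. The supernatant after 21,000xg for 90 min was taken as soluble protein and measured by TMTpro 16plex LC-MS/MS with channel sums equalised. Thermal stability is reported relative to control samples, with values from duplicates. Fold changes are given on a log2 scale.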
# [2] = compound: C/C(=N\NC(=O)C1=CC(=CC=C1)S(=O)(=O)N2CCOCC2)/C3=C(C=CC(=C3)Cl)O
# Outline: as §1
# [3] = compound: C1=CC(=C(C=C1Cl)C2=NC3=NC=CN=C3C(=N2)NC4=CC=NC=C4)F
# Outline: as §1
# [4] = compound: C1=CC(=CC=C1C2=NC3=C(N2)C=C(C=C3)C(=O)N)OC4=CC=C(C=C4)Cl
# Outline: as §1
# [5] = compound: C1=CC2=C(C=CC(=C2)/C=C\3/C(=O)NC(=NCC4=CC=CS4)S3)N=C1
# Outline: as §1
# [6] = compound: C1=CC2=NC=CN=C2C=C1/C=C/3\C(=O)NC(=O)S3
# Outline: as §1
# [7] = compound: C1=CC=C(C=C1)C2=NC(=C(N2)C3=CC=NC=C3)C4=CC(=C(C=C4)Cl)O
# Outline: as §1
# [8] = compound: C1=CC=C2C(=C1)C3=NNC4=CC=CC(=C43)C2=O
# Outline: as §1
# [9] = compound: C1CCN(C1)C(=O)NC2=CC=CC(=C2)NC3=NC=C(C(=N3)NCCC4=CN=CN4)Br
# Outline: as §1
# [10] = compound: C1CN(CCC1(CC2=CC=C(C=C2)Cl)N)C3=NC=NC4=C3C=CN4
# Outline: as §1
# [11] = compound: C1COCCN1CCN2C3=CC=CC=C3N=C2NC(=O)C4=CC(=CC=C4)[N+](=O)[O-] [IRAK-1-4 Inhibitor I]
# Outline: as §1
# [12] = compound: C=CC(=O)N1CCC[C@@H](n2nc(-c3ccc(Oc4ccccc4)cc3)c3c(N)ncnc32)C1 [ibrutinib]
# Outline: as §1
# [13] = compound: CC(=O)c1cnc2ccc(-c3cc(Cl)c(O)c(Cl)c3)nc2c1N[C@H]1CC[C@H](CN(C)C)CC1
# Outline: as §1
# [14] = compound: CC(C)(C)Cn1c(N)nc2ccc(-c3[nH]c(C(C)(C)C)nc3-c3ccc(F)cc3)nc21 [ralimetinib]
# Outline: as §1
# [15] = compound: CC(C)(O)CC(=O)NCCn1ccc2ncnc(Nc3ccc(Oc4cccc(C(F)(F)F)c4)c(Cl)c3)c21
# Outline: as §1
# [16] = compound: CC(C)C1=C2N=C(C=C(N2N=C1)NCC3=CC=CC=C3)NCCCCCCN
# Outline: as §1
# [17] = compound: CC(C)C[C@@H](C=O)NC(=O)[C@H](CC(C)C)NC(=O)[C@H](CC(C)C)NC(=O)OCc1ccccc1
# Outline: as §1
# [18] = compound: CC(C)N(C[C@H]1O[C@@H](n2cnc3c(N)ncnc32)[C@H](O)[C@@H]1O)[C@H]1C[C@@H](CCc2nc3cc(C(C)(C)C)ccc3[nH]2)C1 [pinometostat]
# Outline: as §1
# [19] = compound: CC1=C(C2=C(C=C1)C(=O)C3=CC=CC=C3N2CCCN)C
# Outline: as §1
# [20] = compound: CC1=C(C(CC(=O)N1)C2=CC=C(C=C2)C(F)(F)F)C(=O)NC3=C(C=C4C(=C3)C=NN4)F
# Outline: as §1
Target,log2 fold change [1],log2 fold change [2],log2 fold change [3],log2 fold change [4],log2 fold change [5],log2 fold change [6],log2 fold change [7],log2 fold change [8],log2 fold change [9],log2 fold change [10],log2 fold change [11],log2 fold change [12],log2 fold change [13],log2 fold change [14],log2 fold change [15],log2 fold change [16],log2 fold change [17],log2 fold change [18],log2 fold change [19],log2 fold change [20]
INTS7 (UniProt Q9NVH2),inactive: 0.39,inactive: 0.067,inactive: -0.016,inactive: 0.046,inactive: -0.175,inactive: 0.036,inactive: -0.081,inactive: 0.022,inactive: -0.091,inactive: -0.009,inactive: 0.021,inactive: -0.104,inactive: 0.029,inactive: 0.028,inactive: -0.085,inactive: -0.146,inactive: 0.077,inactive: -0.136,inactive: 0.048,
INHBE (UniProt P58166),inactive: -0.102,,,inactive: -0.125,,inactive: 0.148,,,,,,inactive: -0.004,,,,inactive: 0.147,,,,
IDH3A isoform 2 (UniProt P50213),inactive: 0.132,active: -0.572,,inactive: -0.084,inactive: 0.135,inactive: -0.017,,inactive: 0.039,inactive: -0.052,inactive: 0.164,inactive: 0.196,inactive: 0.008,inactive: -0.004,,,inactive: 0.153,,inactive: 0.011,inactive: 0.059,
IRAK1 (UniProt P51617),inactive: 0.162,,inactive: -0.224,inactive: -0.177,,inactive: 0.037,inactive: -0.07,,,,inactive: 0.078,inactive: -0.048,,inactive: 0.194,inactive: -0.33,inactive: -0.319,inactive: -0.007,inactive: 0.141,,inactive: 0.009
IFT27 (UniProt Q9BW83),inactive: -0.018,inactive: 0.161,,inactive: -0.021,inactive: -0.264,,,inactive: 0.058,,,,,inactive: -0.238,,,inactive: 0.016,,,,
ITGB1BP1 (UniProt O14713),inactive: -0.032,,inactive: -0.003,inactive: 0.016,,inactive: 0.044,inactive: 0.074,,inactive: 0.022,inactive: 0.109,,inactive: -0.125,,inactive: -0.05,inactive: -0.167,inactive: -0.229,inactive: 0.017,,inactive: -0.017,
IKZF4 (UniProt Q9H2S9),inactive: 0.075,inactive: 0.083,inactive: 0.102,inactive: 0.013,inactive: 0.022,inactive: 0.337,inactive: -0.215,inactive: -0.105,,,,inactive: -0.007,inactive: -0.166,inactive: -0.178,inactive: -0.311,inactive: -0.395,inactive: 0.195,,,inactive: -0.002
INO80E (UniProt Q8NBZ0),inactive: 0.114,inactive: -0.183,,inactive: -0.138,inactive: -0.076,inactive: 0.015,inactive: 0.072,inactive: 0.022,inactive: -0.087,inactive: 0.037,inactive: -0.035,inactive: -0.107,inactive: -0.096,inactive: -0.015,,inactive: -0.131,inactive: 0.082,inactive: 0.064,inactive: -0.065,
INTS2 (UniProt Q9H0H0),inactive: -0.001,inactive: -0.384,inactive: 0.179,inactive: -0.011,inactive: 0.407,,inactive: -0.11,inactive: 0.028,inactive: -0.014,inactive: -0.043,inactive: 0.024,,inactive: -0.125,inactive: 0.051,inactive: -0.153,inactive: -0.051,inactive: 0.054,inactive: 0.045,inactive: -0.076,
ITGA2B (UniProt P08514),inactive: -0.046,inactive: -0.051,inactive: 0.023,inactive: 0.06,inactive: -0.023,,inactive: 0,inactive: -0.133,inactive: 0.065,inactive: -0.13,inactive: -0.045,,inactive: -0.045,inactive: 0.054,inactive: -0.172,inactive: 0.462,inactive: 0.026,inactive: -0.064,inactive: -0.121,
IGFBP5 (UniProt P24593),inactive: -0.051,,inactive: -0.009,inactive: 0.484,,,,,inactive: 0.07,inactive: 0.148,,,,,inactive: -0.074,inactive: -0.331,,,inactive: -0.149,
IRF2 (UniProt P14316),inactive: 0.047,inactive: 0.146,,inactive: 0.002,inactive: -0.203,inactive: 0.068,inactive: 0.067,inactive: -0.024,inactive: -0.041,inactive: 0.05,inactive: 0.125,inactive: -0.017,inactive: -0.049,inactive: -0.015,,inactive: 0.094,inactive: 0.008,inactive: -0.072,inactive: -0.139,inactive: -0.076
IFNGR1 (UniProt P15260),inactive: 0.256,inactive: 0.003,inactive: 0.156,inactive: -0.208,inactive: -0.033,inactive: -0.033,inactive: -0.066,inactive: -0.035,inactive: 0.048,inactive: 0.247,,inactive: 0.224,inactive: -0.086,inactive: -0.017,inactive: -0.067,inactive: 0.199,inactive: 0.14,,inactive: -0.093,
INTS1 (UniProt Q8N201),inactive: 0.066,,inactive: -0.11,inactive: 0.065,,,inactive: 0.118,,inactive: -0.041,inactive: 0.015,,,,inactive: -0.185,inactive: 0.095,inactive: -0.058,inactive: -0.113,,inactive: 0.072,inactive: 0.007
INTS8 (UniProt Q75QN2),inactive: 0.04,inactive: -0.008,,inactive: -0.046,inactive: 0.137,inactive: 0.02,inactive: -0.033,inactive: -0.033,inactive: -0.144,inactive: -0.035,inactive: 0.067,inactive: 0.131,inactive: -0.063,inactive: 0.023,,inactive: -0.112,inactive: 0.029,inactive: 0.052,inactive: -0.035,inactive: 0
IKBKB (UniProt O14920),inactive: -0.159,,inactive: -0.394,inactive: 0.109,,inactive: -0.092,inactive: 0.08,,inactive: -0.021,inactive: -0.178,inactive: -0.318,inactive: -0.01,,inactive: 0.231,inactive: 0.017,inactive: -0.102,inactive: 0.233,inactive: 0.332,inactive: -0.118,inactive: 0.141
IKZF1 isoform 2 (UniProt Q13422),inactive: 0.017,,,inactive: -0.006,,inactive: 0.046,inactive: 0.047,,active: -0.38,inactive: -0.016,,inactive: 0.252,,inactive: 0.152,,inactive: 0.031,inactive: 0.159,,active: 0.418,
IRF2BP1 (UniProt Q8IU81),inactive: 0.091,,,inactive: 0.031,,inactive: 0.011,inactive: -0.032,,inactive: -0.081,inactive: -0.034,,inactive: -0.118,,inactive: -0.047,,inactive: 0.088,inactive: 0.089,,inactive: 0.139,
IGKC (UniProt P01834),inactive: 0.432,inactive: -0.383,,inactive: -0.295,inactive: 0.249,inactive: -0.298,inactive: -0.646,inactive: -0.613,inactive: -0.427,inactive: -0.094,inactive: -0.636,inactive: -0.094,inactive: -0.255,inactive: 0,,inactive: -0.137,inactive: -0.32,inactive: 0.099,inactive: 0.116,inactive: -0.164
IMPA2 (UniProt O14732),inactive: 0.091,inactive: 0.075,,inactive: -0.018,inactive: 0.168,inactive: -0.04,inactive: -0.005,inactive: -0.116,inactive: -0.032,inactive: -0.39,,inactive: 0.1,inactive: -0.041,inactive: -0.03,,inactive: -0.034,inactive: -0.001,,inactive: 0.267,
ITPR1 (UniProt Q14643),inactive: 0.087,,inactive: -0.361,inactive: 0.187,,inactive: -0.111,inactive: -0.055,,,,inactive: -0.111,inactive: -0.132,,inactive: 0.178,inactive: -0.09,inactive: -0.046,inactive: 0.154,inactive: -0.108,,
IGF2R (UniProt P11717),inactive: -0.052,inactive: 0,inactive: 0,inactive: 0.025,inactive: -0.012,inactive: 0.003,inactive: 0.009,inactive: -0.021,inactive: 0.002,inactive: 0.012,inactive: -0.002,inactive: 0.013,inactive: 0.016,inactive: -0.038,inactive: -0.007,active: -0.218,inactive: -0.009,inactive: 0.005,inactive: -0.071,
ITGAE (UniProt P38570),inactive: 0.288,,inactive: -0.005,inactive: 0.014,,inactive: -0.046,inactive: 0.071,,,,inactive: -0.031,inactive: 0.326,,inactive: 0.021,inactive: -0.123,inactive: -0.042,inactive: 0.205,inactive: -0.021,,inactive: 0.055

# A different layout for some results above:
Target | log2 fold change [1] | log2 fold change [2] | log2 fold change [3] | log2 fold change [4] | log2 fold change [5] | log2 fold change [6] | log2 fold change [7] | log2 fold change [8] | log2 fold change [9] | log2 fold change [10] | log2 fold change [11] | log2 fold change [12] | log2 fold change [13] | log2 fold change [14] | log2 fold change [15] | log2 fold change [16] | log2 fold change [17] | log2 fold change [18] | log2 fold change [19] | log2 fold change [20]
IKZF4 (UniProt Q9H2S9) | inactive: 0.075 | inactive: 0.083 | inactive: 0.102 | inactive: 0.013 | inactive: 0.022 | inactive: 0.337 | inactive: -0.215 | inactive: -0.105 |  |  |  | inactive: -0.007 | inactive: -0.166 | inactive: -0.178 | inactive: -0.311 | inactive: -0.395 | inactive: 0.195 |  |  | inactive: -0.002
IFNGR1 (UniProt P15260) | inactive: 0.256 | inactive: 0.003 | inactive: 0.156 | inactive: -0.208 | inactive: -0.033 | inactive: -0.033 | inactive: -0.066 | inactive: -0.035 | inactive: 0.048 | inactive: 0.247 |  | inactive: 0.224 | inactive: -0.086 | inactive: -0.017 | inactive: -0.067 | inactive: 0.199 | inactive: 0.14 |  | inactive: -0.093 | 
